Record: PubChem BioAssay AID652243 (Drosophila RNAi Screening Center, 2013)
The screen tested about 24,000 reagents; below is a random part of those with a known target gene and a result. In the full data, 246 (1%) are marked active. 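Plates not normalised; calls are printed but the firefly/Renilla ratio behind them is not deposited; fold cut for lowering reported inconsistently.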 Raw values are not corrected between plates. A plus sign joins genes that one reagent is predicted to hit. The record does not give: the amount of reagent.

Purpose: 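Fly regulators of androgen-dependent reporter output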 (primary screen)
Cells: Drosophila S2R+ cells
Reagent: long dsRNA against Drosophila genes
Time to read-out: 72 h (48 h, then 24 h hormone)
Treatment: synthetic androgen R1881 at 10 nM for 24 h
Read-out: 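Per-well raw luminescence of the androgen-driven firefly reporter and of the Renilla control, two replicates each, without normalisation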
Scale: firefly reporter light: higher = more light from androgen-responsive reporter; Renilla control light: higher = more constitutive control signal (cell number, transfection)
Hit rule: 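Across duplicate plates, a knock-down whose log firefly/Renilla ratio shifted a set fold down or up from the GFP/LacZ control mean was a hit; the downward cut appears as both 1.5 and 3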
Meaning of the calls: active = hit: reporter lowered or raised; inactive = no hit

gene,dsRNA,"firefly reporter light, replicate 1","firefly reporter light, replicate 2","Renilla control light, replicate 1","Renilla control light, replicate 2",Call
lncRNA:CR34047 (long non-coding RNA:CR34047),DRSC07857,3.20e5,3.26e5,2.91e6,2.64e6,inactive
lncRNA:CR34047 (long non-coding RNA:CR34047),DRSC21689,6.39e5,5.49e5,2.49e6,2.09e6,inactive
ric8b + ric8a,DRSC18104,3.74e5,3.61e5,2.79e6,3.00e6,inactive
Nepl10 (Neprilysin-like 10),DRSC07212,3.17e5,2.07e5,2.01e6,1.27e6,inactive
slow (slowdown),DRSC08589,1.11e6,7.09e5,1.23e6,1.51e6,inactive
slow (slowdown),DRSC08590,68539,87773,1.38e6,1.43e6,inactive
slow (slowdown),DRSC26083,3.21e5,2.59e5,6.70e5,7.67e5,inactive
CG9616,DRSC16518,63749,1.04e5,1.58e6,1.44e6,inactive
CG9616,DRSC27905,5.12e5,3.48e5,1.87e6,1.28e6,inactive
Hydr1 (alpha/beta hydrolase 1),DRSC07063,5.32e5,5.16e5,3.18e6,3.71e6,inactive
dx (deltex),DRSC18767,87312,86924,1.73e6,2.16e6,inactive
dx (deltex),DRSC24880,4.64e5,3.13e5,3.68e5,4.32e5,inactive
Sptr (Sepiapterin reductase),DRSC18719,94685,97550,5.71e5,5.54e5,inactive
GlyT (Glycine transporter),DRSC04512,1.09e5,2.00e5,1.40e6,1.21e6,inactive
GlyT (Glycine transporter),DRSC26130,2.57e5,2.39e5,8.42e5,8.03e5,inactive
Eglp1 (Entomoglyceroporin 1),DRSC04502,9.85e5,8.18e5,1.47e6,1.51e6,inactive
Gdh (Glutamate dehydrogenase),DRSC16679,62871,26977,6.48e5,2.98e5,inactive
Gdh (Glutamate dehydrogenase),DRSC28603,5.55e5,4.75e5,1.57e6,1.38e6,inactive
CG33125,DRSC00145,1.88e5,1.35e5,5.94e5,3.70e5,inactive
CG33125,DRSC28619,6.46e5,6.54e5,1.56e6,1.54e6,inactive
CG10602,DRSC02075,1.28e6,7.72e5,2.14e6,1.82e6,inactive
dmrt93B (doublesex-Mab related 93B),DRSC15865,1.83e5,1.74e5,2.87e6,2.86e6,inactive
dmrt93B (doublesex-Mab related 93B),DRSC29931,6.13e5,3.90e5,1.08e6,1.25e6,inactive
Snx1 (Sorting nexin 1),DRSC00531,1.02e5,1.46e5,9.08e5,9.45e5,inactive
Dronc (Death regulator Nedd2-like caspase),DRSC11231,8.30e5,3.43e5,7.89e5,7.37e5,inactive
ac (achaete),DRSC18734,15832,11663,6.26e5,5.11e5,inactive
ac (achaete),DRSC25102,1.88e6,1.86e6,1.77e6,1.32e6,inactive
LManII (Lysosomal alpha-mannosidase II),DRSC01986,8.61e5,1.17e6,1.96e6,2.19e6,inactive
"Fis1 (Fission, mitochondrial 1)",DRSC07772,1.17e5,1.71e5,1.59e6,1.96e6,inactive
CG40583 (retired record),DRSC38774,7.91e5,7.94e5,2.14e6,1.68e6,inactive
Gale (UDP-galactose 4'-epimerase),DRSC08234,9.99e5,9.83e5,1.15e6,1.52e6,inactive
not (non-stop),DRSC11378,92474,89140,6.98e5,5.65e5,inactive
h-cup + Rbp,DRSC14990,2.48e5,1.66e5,2.96e6,2.78e6,inactive
PH4alphaNE3 (prolyl-4-hydroxylase-alpha NE3),DRSC16541,1.30e5,67092,7.06e5,5.78e5,inactive
PH4alphaNE3 (prolyl-4-hydroxylase-alpha NE3),DRSC24337,4.30e5,3.90e5,3.81e5,5.00e5,inactive
Qsox1 (Quiescin sulfhydryl oxidase 1),DRSC06878,6.10e5,8.81e5,1.27e6,2.17e6,inactive
Qsox1 (Quiescin sulfhydryl oxidase 1),DRSC29927,4.25e5,5.05e5,1.39e6,1.07e6,inactive
CG7394,DRSC10835,3.11e5,3.49e5,3.23e6,2.94e6,inactive
p53,DRSC17024,97920,74308,8.02e5,8.15e5,inactive
Or47a (Odorant receptor 47a),DRSC07491,2.45e5,2.54e5,1.21e6,1.41e6,inactive
Dhps (Deoxyhypusine synthase),DRSC10948,1.27e5,1.11e5,1.58e6,1.29e6,inactive
Vha100-3 (Vacuolar H[+] ATPase 100kD subunit 3),DRSC05760,1.54e5,1.40e5,4.05e5,4.52e5,inactive
CG14377 + CG14374,DRSC26405,2.48e5,3.02e5,7.92e5,6.90e5,inactive
dnr1 (defense repressor 1),DRSC03948,2.46e5,1.91e5,6.48e5,5.59e5,inactive
dnr1 (defense repressor 1),DRSC04122,1.76e5,1.96e5,1.58e6,1.27e6,inactive
dnr1 (defense repressor 1),DRSC26101,2.67e5,3.12e5,6.76e5,3.52e5,inactive
CG17385,DRSC06664,46695,1.04e5,6.97e5,6.97e5,inactive
CG17385,DRSC26999,5.80e5,3.96e5,8.87e5,7.17e5,inactive
CG31954,DRSC00580,9.41e5,7.35e5,2.25e6,1.71e6,inactive
CG31954,DRSC28191,4.92e5,4.07e5,1.68e6,1.30e6,inactive
smash (smallish),DRSC12139,40837,52370,3.88e5,3.64e5,inactive
smash (smallish),DRSC12141,29039,39605,2.74e5,3.33e5,inactive
smash (smallish),DRSC12239,48976,57769,1.38e6,1.55e6,inactive
smash (smallish),DRSC12289,1.09e5,1.42e5,3.73e6,3.26e6,inactive
smash (smallish),DRSC27803,3.35e5,2.23e5,4.91e5,6.06e5,inactive
"Lamtor3 (Late endosomal/lysosomal adaptor, MAPK and MTOR activator 3)",DRSC02815,2.21e5,2.26e5,1.38e6,2.13e6,inactive
drd (drop dead),DRSC19343,6.57e5,5.53e5,3.20e6,3.32e6,inactive
drd (drop dead),DRSC21466,6.97e5,6.71e5,2.60e6,2.16e6,inactive
drd (drop dead),DRSC26473,82040,90665,1.11e5,1.50e5,inactive

Targets above whose gene name begins with S or s:
gene,dsRNA,"firefly reporter light, replicate 1","firefly reporter light, replicate 2","Renilla control light, replicate 1","Renilla control light, replicate 2",Call
slow (slowdown),DRSC08589,1.11e6,7.09e5,1.23e6,1.51e6,inactive
slow (slowdown),DRSC08590,68539,87773,1.38e6,1.43e6,inactive
slow (slowdown),DRSC26083,3.21e5,2.59e5,6.70e5,7.67e5,inactive
Sptr (Sepiapterin reductase),DRSC18719,94685,97550,5.71e5,5.54e5,inactive
Snx1 (Sorting nexin 1),DRSC00531,1.02e5,1.46e5,9.08e5,9.45e5,inactive
smash (smallish),DRSC12139,40837,52370,3.88e5,3.64e5,inactive
smash (smallish),DRSC12141,29039,39605,2.74e5,3.33e5,inactive
smash (smallish),DRSC12239,48976,57769,1.38e6,1.55e6,inactive
smash (smallish),DRSC12289,1.09e5,1.42e5,3.73e6,3.26e6,inactive
smash (smallish),DRSC27803,3.35e5,2.23e5,4.91e5,6.06e5,inactive
